# Data as given in PubChem BioAssay AID1259425 (University of Nebraska Medical Center, 2018)
# Aim: 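Seek colon cancer weak points whose silencing resembles KSR1 loss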 (primary screen)
# System: HCT116 human colon cancer cells
# Reagents: siRNA pool against human genes, 50 nM siRNA
# Detection: 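mRNA of six signature genes measured together by branched-DNA assay after 50 nM siRNA pool, blank removed, divided by geometric mean of two housekeeping genes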
# Scale: BNIP3L mRNA: higher = more BNIP3L transcript after knockdown; NDRG1 mRNA: higher = more NDRG1 transcript after knockdown; BNIP3 mRNA: higher = more BNIP3 transcript after knockdown; ALDOC mRNA: higher = more ALDOC transcript after knockdown; ACSL5 mRNA: higher = more ACSL5 transcript after knockdown
# The deposit covers about 14,000 reagents; below is an unselected part. A reagent listed more than once was tested more than once; the source does not tell the runs apart. The record does not give: the time to read-out.
target,PubChem SID,"BNIP3L mRNA, set 1","NDRG1 mRNA, set 1","BNIP3 mRNA, set 1","ALDOC mRNA, set 1","ACSL5 mRNA, set 1"
TGIF2,SID364002191,0.0881,0.0753,0.277,0.0109,0.31
WBP1,SID363998349,0.196,0.687,0.686,0.0413,0.343
NOX5,SID364002829,0.077,0.0936,0.224,0.0134,0.181
ECRG4,SID364003968,0.0813,0.107,0.197,0.0315,0.194
ALYREF,SID363996662,0.135,0.393,0.406,0.0247,0.151
LEFTY2,SID363994362,0.0793,0.157,0.239,0.0155,0.0952
ABHD17C,SID364005239,0.108,0.23,0.545,0.041,0.223
DCTD,SID363993134,0.0481,0.179,0.37,0.0155,0.172
MDM2,SID363993572,0.0663,0.135,0.214,0.018,0.14
UGT1A6,SID363992369,0.0949,0.139,0.276,0.0286,0.156
LRRC14,SID363999018,0.138,0.753,0.529,0.0206,0.222
ZRANB1,SID364000374,0.0601,0.263,0.229,0.0206,0.135
PLA2G2D,SID363998286,0.112,0.179,0.154,0.0224,0.0619
HIC1,SID363997294,0.101,0.241,0.47,0.0167,0.441
ZNF823,SID364005540,0.106,0.138,0.396,0.0104,0.156
OCA2,SID363991608,0.0963,0.111,0.261,0.0289,0.124
NXPE4,SID364000441,0.112,0.185,0.262,0.0265,0.195
IL15RA,SID363993390,0.157,0.129,0.333,0.0447,0.114
ADAM19,SID364002626,0.117,0.159,0.328,0.0364,0.185
PAPOLA,SID364004103,0.0782,0.186,0.207,0.0231,0.19
XRCC1,SID363997119,0.0673,0.0978,0.275,0.002,0.2
APOBEC1,SID363992869,0.141,0.242,0.268,0.0302,0.342
COL12A1,SID363995356,0.0509,0.112,0.329,0.0263,0.101
PKD1,SID363991628,0.206,0.111,0.262,0.04,0.314
KPNA3,SID363993465,0.0936,0.223,0.273,0.0317,0.173
PLD1,SID363993830,0.0831,0.192,0.213,0.0237,0.115
ECHDC2,SID364000939,0.0725,0.223,0.266,0.0121,0.21
FXYD4,SID364004823,0.0942,0.1,0.238,0.0258,0.09
CTSZ,SID363992616,0.111,0.0927,0.434,0.0216,0.0751
PPFIBP2,SID364005258,0.24,0.141,0.259,0.0597,0.103
PERM1,SID364005486,0.135,0.518,0.236,0.00864,0.162

Next part (9 carried over from the part before).
target,PubChem SID,"BNIP3L mRNA, set 1","NDRG1 mRNA, set 1","BNIP3 mRNA, set 1","ALDOC mRNA, set 1","ACSL5 mRNA, set 1"
COL12A1,SID363995356,0.0509,0.112,0.329,0.0263,0.101
PKD1,SID363991628,0.206,0.111,0.262,0.04,0.314
KPNA3,SID363993465,0.0936,0.223,0.273,0.0317,0.173
PLD1,SID363993830,0.0831,0.192,0.213,0.0237,0.115
ECHDC2,SID364000939,0.0725,0.223,0.266,0.0121,0.21
FXYD4,SID364004823,0.0942,0.1,0.238,0.0258,0.09
CTSZ,SID363992616,0.111,0.0927,0.434,0.0216,0.0751
PPFIBP2,SID364005258,0.24,0.141,0.259,0.0597,0.103
PERM1,SID364005486,0.135,0.518,0.236,0.00864,0.162
GUCY1A1,SID363992143,0.0765,0.135,0.178,0.0129,0.09
CASKIN2,SID364001807,0.0776,0.106,0.256,0.00955,0.249
MMP14,SID363995934,0.153,0.143,0.387,0.0301,0.132
GAL,SID363999763,0.143,0.137,0.343,0.0523,0.0768
GTF3C5,SID363998036,0.0711,0.072,0.357,0.0111,0.108
SH2D3A,SID363996392,0.16,0.29,0.264,0.0598,0.153
RMDN1,SID363999811,0.0691,0.0691,0.321,0.0199,0.192
SH2B3,SID363996377,0.077,0.403,0.405,0.0433,0.216
PPP4R4,SID364001913,0.139,0.223,0.435,0.0102,0.0705
OR1D4,SID363994635,0.236,0.372,0.31,0.0743,0.2
PTPA,SID364002028,0.112,0.22,0.276,0.0324,0.125
SLC35E2A,SID363999146,0.146,0.11,0.241,0.0279,0.11
LMAN2,SID363997582,0.127,0.369,0.32,0.0409,0.199
CLUH,SID363999371,0.18,0.219,0.349,0.0305,0.196
ZBTB26,SID364001898,0.0333,0.0707,0.277,0.011,0.182
CYB5R2,SID363999965,0.0543,0.107,0.276,0.00818,0.154
TNFRSF18,SID363995197,0.168,0.156,0.348,0.0493,0.0662
HTR1A,SID363991847,0.125,0.617,0.336,0.0199,0.364
ARFGAP3,SID363998942,0.111,0.198,0.4,0.0172,0.0984
ATF6B,SID363995365,0.128,0.0474,0.386,0.0137,0.24
ALDOA,SID363991373,0.0349,0.429,0.2,-0.00606,0.2
MFAP1,SID363996794,0.133,0.735,0.303,0.0251,0.212
ZBTB20,SID363999619,0.143,0.244,0.425,0.0496,0.207
KBTBD7,SID364003795,0.0778,0.37,0.383,0.0197,0.279
KBTBD7,SID364003795,0.157,0.203,0.384,0.0556,0.465
SLC71A2,SID364004051,0.154,0.228,0.303,0.0318,0.545
KCNQ3,SID363995494,0.0684,0.101,0.241,0.0438,0.037
ALOX12,SID363991996,0.0843,0.123,0.232,0.0415,0.0706
MXI1,SID363996822,0.157,0.0561,0.32,0.00915,0.122
OPN1MW,SID363991836,0.15,0.586,0.386,0.0436,0.334
CDK5R1,SID363994944,0.0632,0.342,0.175,0.0233,0.158
TOB2,SID363999998,0.107,0.158,0.298,0.0252,0.176
